# In PubChem BioAssay AID540275 (National Center for Advancing Translational Sciences (NCATS), 2011):
# By UniProt entry, the sequences of proteins in these tests, tags left out.
# UniProt Q8NER1, whole entry, looked up: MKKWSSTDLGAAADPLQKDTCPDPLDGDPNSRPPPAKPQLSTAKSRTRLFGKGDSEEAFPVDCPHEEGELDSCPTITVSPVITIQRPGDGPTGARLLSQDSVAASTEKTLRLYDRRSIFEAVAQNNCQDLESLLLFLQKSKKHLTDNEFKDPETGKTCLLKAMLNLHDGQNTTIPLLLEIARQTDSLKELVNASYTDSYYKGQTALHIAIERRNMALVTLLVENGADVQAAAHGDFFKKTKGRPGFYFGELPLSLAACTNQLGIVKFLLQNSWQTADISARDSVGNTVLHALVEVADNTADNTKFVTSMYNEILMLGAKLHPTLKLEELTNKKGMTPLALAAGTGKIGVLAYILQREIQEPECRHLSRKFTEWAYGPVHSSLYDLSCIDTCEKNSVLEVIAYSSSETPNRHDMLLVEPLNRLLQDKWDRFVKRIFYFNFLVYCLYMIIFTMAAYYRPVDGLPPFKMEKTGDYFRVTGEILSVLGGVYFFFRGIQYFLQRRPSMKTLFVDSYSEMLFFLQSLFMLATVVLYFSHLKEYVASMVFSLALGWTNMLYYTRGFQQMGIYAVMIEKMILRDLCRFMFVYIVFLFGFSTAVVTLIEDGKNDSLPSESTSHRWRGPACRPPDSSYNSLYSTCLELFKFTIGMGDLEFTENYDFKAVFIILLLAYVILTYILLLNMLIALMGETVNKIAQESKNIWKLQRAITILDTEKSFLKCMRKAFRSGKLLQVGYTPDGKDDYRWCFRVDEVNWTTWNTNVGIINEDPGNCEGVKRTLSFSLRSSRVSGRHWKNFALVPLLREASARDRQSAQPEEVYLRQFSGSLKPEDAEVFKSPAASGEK
# Hit rate of the full screen: of about 320,000 compounds, about 620 (0.19%) were called active. The shares of active, inactive and inconclusive entries below differ from those in the screen. Cut-off read from the data, not from the text of the source: active = activation above about 80%; inconclusive = between about 30% and that limit; inactive = weaker than that.
# Molecular target: Transient receptor potential cation channel subfamily V member 1 (Homo sapiens) (UniProt Q8NER1)
# Test: HTS Assay for Compounds that Act as Agonists of the Vanilloid Receptor 1; note: 0% is about no effect
# Conditions: TRPV1-expressing cells, Fluo-8 calcium influx, agonist mode; at 8.33 µM, active compounds read high
# In short: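 Cells expressing TRPV1 were dye-loaded with Fluo-8 and read kinetically: 10 s baseline, 3 min after compound (agonist portion), then 2 min after EC20 capsaicin (allosteric enhancer portion). Calcium-bound dye fluorescence at 480/520 nm.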
row,SMILES,activation
1,CCOC(=O)c1cccc(NC(=O)Cn2c(CC(=O)N3CCCC3)nc3ccccc32)c1,inactive: -0.869%
2,Cc1cc(C)cc(-n2c3nc4ccccc4nc3c3c(=O)n(Cc4ccco4)cnc32)c1,inactive: -3.4%
3,Cc1cc(C)nc(Nc2cccc(C(F)(F)F)c2)n1,inactive: -1.2%
4,O=C(CC1C(=O)NCCN1C(=O)Nc1ccc(C(F)(F)F)cc1)Nc1ccc(F)cc1 (stereo not given),inconclusive: 35.7%
5,COc1ccc2c(c1OC)C(=O)OC2Nc1nc(-c2cc3cc(Br)ccc3oc2=O)cs1 (stereo not given),inconclusive: 40.3%
6,O=C(CCCN1C(=O)c2ccccc2C1=O)N1CCOCC1,inactive: 0.764%
7,S=c1[nH]nc(Cc2n[nH]c(=S)n2-c2ccccc2)n1-c1ccccc1,inactive: -0.906%
8,CCOC(=O)c1c(NC(=O)CSC(=S)N2CCOCC2)sc(C)c1C,inconclusive: 34.4%
9,O=C(c1cc(-c2ccccc2)nn1-c1ccccc1)N1CCN(S(=O)(=O)c2ccc(F)cc2)CC1,inconclusive: 75.9%
10,Cc1ccc(C(=O)OCC(=O)NCC2COc3ccccc3O2)cc1 (stereo not given),inactive: 6.3%
11,CN(CC(=O)Nc1cccc(S(=O)(=O)N2CCOCC2)c1)CC(=O)Nc1ccc(Cl)c(C(F)(F)F)c1,inactive: 11.5%
12,CCc1cccc2c(C(=O)CSc3nnc(C4CC4)o3)c[nH]c12,inactive: 5.55%
13,O=C(N/N=C/c1ccoc1)c1ccc(Br)cc1,inconclusive: 63.1%
14,O=C(NCc1cccnc1)c1ccc(COc2ccc(Cl)cc2)cc1,inconclusive: 35.9%
15,O=C(Nc1ccc(OC(F)(F)F)cc1)c1ccc(S(=O)(=O)N2CCOCC2)o1,inconclusive: 45.7%
16,Cc1nc(N2CCCCC2C)c2c(C)c(C(=O)Nc3cccc(C(F)(F)F)c3)sc2n1 (stereo not given),inconclusive: 36.4%
17,Cc1ccc(C2CCN(C(=O)Nc3ccccc3)C2)cc1 (stereo not given),inconclusive: 69.5%
18,CCN(CC(=O)Nc1ccccc1Br)Cc1nc2ccccc2c(=O)[nH]1,inactive: 11%
19,Cc1ccc(NC(=O)N2CCCC(c3ccccc3)C2)cc1 (stereo not given),inconclusive: 52.2%
20,Cc1ccc(NC(=O)Cn2c(O)c(N=NC(N)=S)c3ccccc32)cc1,inactive: -2.04%
21,N#C/C(=C\C=C\c1ccccc1)C(=O)Nc1ccccc1,inconclusive: 45.1%
22,O=C(COc1ccc2c(-c3ccccc3)cc(=O)oc2c1)Nc1cccnc1,inactive: -0.659%
23,CCCC/C=C/C(NC(=O)CCc1ccccc1)c1ccccc1 (stereo not given),inconclusive: 41.9%

row,SMILES,activation
1,O=C1CSC(=S)N1/N=C/c1cccc(C(F)(F)F)c1,inactive: -1.89%
2,Cc1ccccc1NC(=S)NNc1ncc(C(F)(F)F)cc1Cl,inactive: 1.8%
3,C=CCN=C1S/C(=C/c2cccc([N+](=O)[O-])c2)C(=O)N1CC=C,inactive: 1.76%
4,Cc1cccc(C(=O)NNC(=O)c2c(O)c3ccccc3n(C)c2=O)c1,inactive: 0.821%
5,CC(C)N(C(C)C)S(=O)(=O)c1ccc(NN)nc1,inactive: -1.16%
6,CCn1c2ccccc2c2cc(NC(=O)CSc3nnc(-c4cccc(F)c4)o3)ccc21,inactive: 1.45%
7,O=c1c2ccccc2c(C=Nc2ccc(O)cc2)c(O)n1Cc1ccccc1,inconclusive: 51.3%
8,O=C(Nc1ccc(S(=O)(=O)N2CCN(Cc3ccccc3)CC2)cc1)c1cnccn1,inconclusive: 43.7%
9,CCn1c(=O)c(C(=O)NNC(=O)c2ccccc2F)c(O)c2ccccc21,inactive: 25.2%
10,COc1ccc2c(c1)C(SCC(=O)NCc1ccccc1)CC(C)(C)O2 (stereo not given),inconclusive: 41.8%
11,O=C(NCc1ccccc1CN1CCCC1)c1ccc(OCc2cscn2)cc1,inactive: -0.933%
12,COc1ccc(C2CC(c3cccs3)=NN2c2ccc(C=O)cc2)cc1 (stereo not given),inactive: 16.3%
13,COC(=O)c1cc(NC(=O)c2cccs2)ccc1N1CCOCC1,inactive: 14.8%
14,O=C(Nc1ccc([N+](=O)[O-])cc1)N1CCCCC1,inconclusive: 30.6%
15,Cc1cc(C)nc(NS(=O)(=O)c2ccc(NC(=O)CSc3nc(-c4ccccc4)c(C#N)c(=O)[nH]3)cc2)n1,inactive: 0.493%
16,Cc1c(Br)cc(C(=O)N2CCCCCC2)c(C)c1C,inconclusive: 55.1%
17,O=C1COc2ccc(S(=O)(=O)Nc3ccc4c(c3)OCO4)cc2N1,inactive: 14.2%
18,O=C(CCN1C(=O)C2C3C=CC(C4CC34)C2C1=O)Oc1ccc(Br)cc1 (stereo not given),inactive: -0.568%
19,Cc1ccc(NC(=O)CO/N=C(\N)c2nonc2N)cc1,inconclusive: 57.4%
20,CC(C(=O)NCCCc1ccccc1)n1cccc1C(=O)c1ccccc1 (stereo not given),inconclusive: 46.8%
21,CC(C)c1ccc(/C=C/C(=O)NCCCN2CCOCC2)cc1,inconclusive: 43.6%
22,O=C(NCc1ccc(Cl)cc1)Nc1ccc(F)cc1,inconclusive: 69.4%
23,COc1cccc(N2CCN(CC(=O)Nc3ccccc3C(=O)NCCc3ccccc3)CC2)c1,inconclusive: 33%

# Structures shown so far with a furan ring, fused or not:
row,SMILES,activation
2,Cc1cc(C)cc(-n2c3nc4ccccc4nc3c3c(=O)n(Cc4ccco4)cnc32)c1,inactive: -3.4%
13,O=C(N/N=C/c1ccoc1)c1ccc(Br)cc1,inconclusive: 63.1%
15,O=C(Nc1ccc(OC(F)(F)F)cc1)c1ccc(S(=O)(=O)N2CCOCC2)o1,inconclusive: 45.7%

# Further compounds follow:

row,SMILES,activation
1,O=C(Nc1ccc(S(=O)(=O)N2CCCC2)cc1)c1cnccn1,inconclusive: 31.5%
2,COc1ccc(-c2cc(C(F)(F)F)nc(SCCC(=O)NCc3ccccc3)n2)cc1,inconclusive: 32.3%
3,COc1ccc([C@H]2CC(=O)C=C(c3cccc(OC)c3OC)C2)cc1OC,inconclusive: 37.1%
4,O=C(CC12CC3CC(CC(C3)C1)C2)NCc1ccc(F)cc1,inconclusive: 40.5%
5,CC1=C(C#N)C(NC(=O)c2ccccc2Cl)(C(F)(F)F)C(=O)N1 (stereo not given),inactive: -5.03%
6,CC(=O)N1CCCN(Cc2cn(-c3ccc(C)cc3)nc2-c2cccc(C)c2)CC1,inconclusive: 54.4%
7,CN(CC1CCOCC1)C(=O)CC1C(=O)NCCN1CC(c1ccccc1)c1ccccc1 (stereo not given),inactive: 3.75%
8,CCN(C(=O)c1cc2c(=O)n3cccc(C)c3nc2n1CCCOC)C1CCCCC1,inconclusive: 64.9%
9,CC1=NNC(=O)/C1=C\c1cn(-c2ccccc2)nc1-c1ccc(F)cc1,inactive: 28.9%
10,Cc1cccc(-n2c(O)c(C=Nc3cc(O)ccc3C)c3ccccc3c2=O)n1,inactive: 1.62%
11,c1csc(-c2nnc(-c3ccc(N4CCOCC4)cc3)o2)c1,inconclusive: 35.1%
12,COc1ccc(CNC(=O)CCNC(=O)c2ccc(C(C)(C)C)cc2)cc1OC,inconclusive: 77.3%
13,O=C(NC(=S)Nn1cnnc1)c1ccccc1Cl,inactive: 0.533%
14,Cc1nnsc1C(=O)NC1CCCc2c1cnn2-c1ccccc1F (stereo not given),inconclusive: 38.1%
15,C=CCN1C(=O)S/C(=C/c2ccc(Sc3nc4ccccc4[nH]3)o2)C1=O,inconclusive: 57.9%
16,S=C(NCc1ccccc1)Nc1cccc2ccccc12,inconclusive: 59.5%
17,O=c1c2cnn(-c3ccccc3)c2ncn1Cc1ccccc1,inconclusive: 43.8%
18,O=C(Nc1ccc(F)c(Cl)c1)Nc1ccc(Cl)cn1,inactive: -1.19%
19,COc1cccc(-c2cc3nc4c(c(N5CCC6(CC5)OCCO6)n3n2)CCC4)c1,inconclusive: 35.2%
20,Cc1cc(CN(C)C(=O)c2cc(COc3ccc(F)cc3Cl)on2)n[nH]1,inconclusive: 41.7%
21,CCC1(c2ccccc2)NC(=O)N(CC(=O)Nc2cc(S(=O)(=O)N3CCCCC3)ccc2N(C)C)C1=O (stereo not given),inactive: 2.64%
22,c1ccc(-c2nc(NCCCN3CCOCC3)c3ccccc3n2)cc1,inconclusive: 38.4%
23,O=C(Nc1ccc(Br)c(C(F)(F)F)c1)c1ccccc1,inconclusive: 78.3%

# Individual results from the entries so far:
# In activation, `CCC1(c2ccccc2)NC(=O)N(CC(=O)Nc2cc(S(=O)(=O)N3CCCCC3)ccc2N(C)C)C1=O` (stereo not given) is listed with inactive: 2.64%
# In activation, `CC1=NNC(=O)/C1=C\c1cn(-c2ccccc2)nc1-c1ccc(F)cc1` is listed with inactive: 28.9%

# (further entries)

row,SMILES,activation
1,O=C(/C=C/c1ccc(O)c(O)c1)c1ccc(S(=O)(=O)N2CCCCCC2)cc1,inconclusive: 34.1%
2,Clc1ccc(/C=N/Nc2ncnc3ccccc23)cc1Cl,inconclusive: 42.2%
3,COc1ccc(C(=O)NC(C(=O)N2CCc3ccccc32)C(C)C)cc1 (stereo not given),inconclusive: 38.7%
4,O=C(Cc1ccc(-n2cnnn2)cc1)NC12CC3CC(CC(C3)C1)C2,inconclusive: 60.1%
5,O=S(=O)(c1ccc(Cl)cc1)c1nc(-c2ccco2)oc1N1CCCCC1,inconclusive: 39.5%
6,COc1ccccc1CNC(=O)COC(=O)CCC(=O)c1cccs1,inconclusive: 47.3%
7,CSc1ccccc1NC(=O)c1ccco1,inactive: -0.542%
8,O=C(Nc1nnc(SCc2ccccc2)s1)c1cc2c(s1)CCCC2,inconclusive: 31.7%
9,COc1ccc(CCNC(=O)CSCc2ccc(Cl)cc2)cc1OC,inconclusive: 32.2%
10,CCOc1ccc(C(C)(C)C)cc1S(=O)(=O)N1CC(C)OC(C)C1 (stereo not given),inconclusive: 32.4%
11,O=C(Cc1ccc(Cl)cc1)Nc1ccccc1CO,inconclusive: 36.6%
12,CCCCNC(=O)c1c(CSc2ccc(Cl)cc2)noc1C(=O)NCCC,inconclusive: 42.7%
13,CCCCCn1c(=O)c(-c2nc3ccccc3[nH]2)c(O)c2ccccc21,inactive: 1.31%
14,COc1ccc(NC(=O)CN(C)S(=O)(=O)c2ccc(Cl)cc2)cc1Cl,inconclusive: 30.8%
15,N#Cc1cccc(Nc2c3c(nc4ccccc24)CCCC3)c1,inconclusive: 33.9%
16,S=C(NCCc1c[nH]c2ccccc12)NC1CCCC1,inconclusive: 44%
17,O=C(C1CCCN(c2ncnc3c2nc2n3CCCCC2)C1)N1CCN(c2ccccc2F)CC1 (stereo not given),inconclusive: 55.3%
18,CCC(CO)Nc1nc2ccc(Cl)cc2c2ccccc12 (stereo not given),inconclusive: 42.7%
19,CCN(C(=O)c1ccc(C)c(Br)c1)c1ccccc1,inconclusive: 40.3%
20,C=CCn1c(SCc2ccc(C(=O)NCCO)cc2)nc2sc(C)c(C)c2c1=O,inconclusive: 32.6%
21,CCN(CC)CCCNC(=O)c1cn(CC)c2ccc(S(=O)(=O)N(C)C3CCCCC3)cc2c1=O,inactive: -1.14%
